# ± gives the standard deviation of the averaged measurements. Some of the results follow.
# How the values were obtained:
# Assay in all cases: NP40-soluble protein abundance relative to vehicle (solubility fold change) (ratio); higher = more soluble protein in presence of GTP
# PLCL2 = biological target: T1, PLCL2 (UniProt Q9UPR0)
# T1 sequence (whole entry): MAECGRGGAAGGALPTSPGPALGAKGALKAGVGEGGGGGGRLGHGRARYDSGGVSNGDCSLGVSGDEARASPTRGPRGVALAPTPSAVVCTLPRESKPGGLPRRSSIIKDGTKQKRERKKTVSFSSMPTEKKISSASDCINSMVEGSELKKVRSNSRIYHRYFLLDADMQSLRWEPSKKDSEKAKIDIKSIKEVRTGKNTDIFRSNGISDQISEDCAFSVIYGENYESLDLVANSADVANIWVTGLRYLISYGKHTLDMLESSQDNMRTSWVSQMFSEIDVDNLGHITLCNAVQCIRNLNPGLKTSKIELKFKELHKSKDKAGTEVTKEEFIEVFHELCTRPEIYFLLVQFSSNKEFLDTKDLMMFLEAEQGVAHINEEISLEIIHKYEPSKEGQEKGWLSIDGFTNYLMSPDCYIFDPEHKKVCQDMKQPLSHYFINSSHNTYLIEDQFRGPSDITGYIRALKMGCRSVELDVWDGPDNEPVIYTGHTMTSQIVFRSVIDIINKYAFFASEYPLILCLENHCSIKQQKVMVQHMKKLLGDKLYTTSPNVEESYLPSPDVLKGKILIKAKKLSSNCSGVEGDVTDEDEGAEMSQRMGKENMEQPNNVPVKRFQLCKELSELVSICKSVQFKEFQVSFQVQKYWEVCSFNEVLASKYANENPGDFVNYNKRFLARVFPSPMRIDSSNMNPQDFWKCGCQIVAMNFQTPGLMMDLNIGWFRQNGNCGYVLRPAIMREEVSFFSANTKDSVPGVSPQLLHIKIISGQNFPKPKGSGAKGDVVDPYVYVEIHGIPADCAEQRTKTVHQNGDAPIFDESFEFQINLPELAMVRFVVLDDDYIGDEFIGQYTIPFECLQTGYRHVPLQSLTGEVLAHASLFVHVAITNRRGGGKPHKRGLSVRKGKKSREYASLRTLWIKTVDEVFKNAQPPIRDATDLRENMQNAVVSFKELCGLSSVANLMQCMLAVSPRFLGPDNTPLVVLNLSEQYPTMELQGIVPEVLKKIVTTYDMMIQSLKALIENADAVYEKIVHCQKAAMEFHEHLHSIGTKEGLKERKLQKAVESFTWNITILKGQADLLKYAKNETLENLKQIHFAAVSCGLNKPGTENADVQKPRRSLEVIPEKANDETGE
# Procedure, shortened: (§1)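 Across three independent experiments, values are fold changes against the detergent-processed vehicle for each replicate, based on vsn-normalised intensities. The samples were Jurkat crude lysate treated with eight concentrations (0.1 to 10 mM) for 10 min at room temperature and then 3 min at 37 °C. Lysate was solubilised with 0.8% NP40 and benzonase, ultracentrifuged, and the supernatant analysed by TMT-labelled LC-MS/MS.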
# RRP15 = biological target: T2, RRP15 (UniProt Q9Y3B9)
# T2 sequence (whole entry): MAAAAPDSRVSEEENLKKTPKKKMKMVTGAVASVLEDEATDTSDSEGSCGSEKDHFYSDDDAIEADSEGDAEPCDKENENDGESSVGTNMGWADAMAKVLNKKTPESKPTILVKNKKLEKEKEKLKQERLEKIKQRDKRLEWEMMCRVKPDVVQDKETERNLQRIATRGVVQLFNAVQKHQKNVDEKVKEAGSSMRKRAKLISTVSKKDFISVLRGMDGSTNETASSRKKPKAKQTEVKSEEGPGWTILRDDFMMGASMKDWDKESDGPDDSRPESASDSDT
# Procedure, shortened: as §1
# SNX6 = biological target: T3, SNX6 (UniProt Q9UNH7)
# T3 sequence (whole entry): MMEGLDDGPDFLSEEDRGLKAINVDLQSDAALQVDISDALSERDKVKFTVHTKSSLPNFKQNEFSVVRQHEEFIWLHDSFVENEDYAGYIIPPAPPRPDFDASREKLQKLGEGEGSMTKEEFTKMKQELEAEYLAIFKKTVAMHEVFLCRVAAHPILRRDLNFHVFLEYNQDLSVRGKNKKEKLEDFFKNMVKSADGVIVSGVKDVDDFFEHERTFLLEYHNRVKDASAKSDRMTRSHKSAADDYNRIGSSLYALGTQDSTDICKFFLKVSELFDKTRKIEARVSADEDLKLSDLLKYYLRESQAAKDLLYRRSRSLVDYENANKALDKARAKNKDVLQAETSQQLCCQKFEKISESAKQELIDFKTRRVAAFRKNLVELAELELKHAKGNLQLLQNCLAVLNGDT
# Procedure, shortened: as §1
# [1] = biological target: T4, UniProt Q9Y2K1 and related entries
# T4 sequence (whole entry): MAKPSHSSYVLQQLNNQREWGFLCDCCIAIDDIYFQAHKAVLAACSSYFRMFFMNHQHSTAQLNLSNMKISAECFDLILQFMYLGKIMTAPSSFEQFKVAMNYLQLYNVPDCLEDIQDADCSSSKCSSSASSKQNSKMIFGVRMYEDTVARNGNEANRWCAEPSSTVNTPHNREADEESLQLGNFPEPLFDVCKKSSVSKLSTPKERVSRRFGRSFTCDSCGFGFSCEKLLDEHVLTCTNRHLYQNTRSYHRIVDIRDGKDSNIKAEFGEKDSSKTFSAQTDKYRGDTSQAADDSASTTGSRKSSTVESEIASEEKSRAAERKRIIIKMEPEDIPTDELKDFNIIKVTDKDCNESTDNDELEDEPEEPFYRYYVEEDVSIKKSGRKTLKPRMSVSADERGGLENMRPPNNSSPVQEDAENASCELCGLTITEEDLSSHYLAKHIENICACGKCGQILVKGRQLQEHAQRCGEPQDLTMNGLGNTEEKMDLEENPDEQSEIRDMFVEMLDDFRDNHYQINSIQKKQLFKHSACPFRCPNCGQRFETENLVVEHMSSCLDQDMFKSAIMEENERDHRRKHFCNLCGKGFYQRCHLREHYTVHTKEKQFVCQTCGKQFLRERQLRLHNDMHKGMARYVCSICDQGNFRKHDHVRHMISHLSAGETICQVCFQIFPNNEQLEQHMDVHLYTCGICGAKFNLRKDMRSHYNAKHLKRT
# Procedure, shortened: as §1
structure (smiles),measurement,setting,value
Nc1nc2c(ncn2[C@@H]2O[C@H](COP(=O)(O)OP(=O)(O)OP(=O)(O)O)[C@@H](O)[C@H]2O)c(=O)[nH]1 [guanosine triphosphate],NP40-soluble protein abundance,PLCL2; concentration: 0.1mM,1.06 ± 0.034
same,NP40-soluble protein abundance,PLCL2; concentration: 0.5mM,1.07 ± 0.078
same,NP40-soluble protein abundance,PLCL2; concentration: 1mM,0.994 ± 0.06
same,NP40-soluble protein abundance,PLCL2; concentration: 2mM,0.986 ± 0.057
same,NP40-soluble protein abundance,PLCL2; concentration: 4mM,0.9903 ± 0.0089
same,NP40-soluble protein abundance,PLCL2; concentration: 6mM,0.924 ± 0.029
same,NP40-soluble protein abundance,PLCL2; concentration: 8mM,0.955 ± 0.016
same,NP40-soluble protein abundance,PLCL2; concentration: 10mM,0.933 ± 0.078
same,NP40-soluble protein abundance,RRP15; concentration: 0.1mM,0.914 ± 0.12
same,NP40-soluble protein abundance,RRP15; concentration: 0.5mM,0.98 ± 0.03
same,NP40-soluble protein abundance,RRP15; concentration: 1mM,0.995 ± 0.058
same,NP40-soluble protein abundance,RRP15; concentration: 2mM,1.08 ± 0.052
same,NP40-soluble protein abundance,RRP15; concentration: 4mM,1.1 ± 0.037
same,NP40-soluble protein abundance,RRP15; concentration: 6mM,1.16 ± 0.066
same,NP40-soluble protein abundance,RRP15; concentration: 8mM,1.15 ± 0.011
same,NP40-soluble protein abundance,RRP15; concentration: 10mM,1.3 ± 0.027
same,NP40-soluble protein abundance,SNX6; concentration: 0.1mM,0.972 ± 0.0099
same,NP40-soluble protein abundance,SNX6; concentration: 0.5mM,0.943 ± 0.028
same,NP40-soluble protein abundance,SNX6; concentration: 1mM,0.954 ± 0.036
same,NP40-soluble protein abundance,SNX6; concentration: 2mM,0.891 ± 0.039
same,NP40-soluble protein abundance,SNX6; concentration: 4mM,0.91 ± 0.048
same,NP40-soluble protein abundance,SNX6; concentration: 6mM,0.889 ± 0.058
same,NP40-soluble protein abundance,SNX6; concentration: 8mM,0.912 ± 0.042
same,NP40-soluble protein abundance,SNX6; concentration: 10mM,0.876 ± 0.051
same,NP40-soluble protein abundance,[1]; concentration: 0.1mM,1.09 ± 0.12
same,NP40-soluble protein abundance,[1]; concentration: 0.5mM,1.13 ± 0.12
same,NP40-soluble protein abundance,[1]; concentration: 1mM,1.18 ± 0.17
same,NP40-soluble protein abundance,[1]; concentration: 2mM,1.21 ± 0.12

# Fetched one by one from above:
structure (smiles),measurement,setting,value
Nc1nc2c(ncn2[C@@H]2O[C@H](COP(=O)(O)OP(=O)(O)OP(=O)(O)O)[C@@H](O)[C@H]2O)c(=O)[nH]1 [guanosine triphosphate],NP40-soluble protein abundance,RRP15; concentration: 4mM,1.1 ± 0.037
same,NP40-soluble protein abundance,PLCL2; concentration: 2mM,0.986 ± 0.057
